Measured values as given in the supplement of paper PMC10077471.
Over roughly 1,900 compounds, “excess over highest single agent (ExcessHSA) synergy score, 6x6 matrix” has its median near -83; the lowest 2% begin near -370. The list shows a part of the results.

tested on: NCI-H446; assay: excess over highest single agent (ExcessHSA) synergy score, 6x6 matrix; higher = less synergy (more negative = stronger synergy); settings: 72 h; CellTiter-Glo viability

Row | Compound | excess over highest single agent
1 | O=C(Nc1cc(C(F)(F)F)cc(C(F)(F)F)c1)c1cc(Cl)ccc1O + Cc1sc2c(c1C)C(c1ccc(Cl)cc1)=N[C@@H](CC(=O)OC(C)(C)C)c1nnc(C)n1-2 [NCGC00250412-19] | -78.6
2 | COc1ccc(-c2coc3cc(O)ccc3c2=O)cc1 + Cc1sc2c(c1C)C(c1ccc(Cl)cc1)=N[C@@H](CC(=O)OC(C)(C)C)c1nnc(C)n1-2 [NCGC00250412-19] | -134
3 | CNc1nc(-c2ccc3c(N)n[nH]c3c2)cc(N2C[C@@H](C(=O)NC3CCCCC3)CC[C@H]2C)n1 + Cc1sc2c(c1C)C(c1ccc(Cl)cc1)=N[C@@H](CC(=O)OC(C)(C)C)c1nnc(C)n1-2 [NCGC00250412-19] | -113
4 | O=C1C(c2c(O)[nH]c3ccccc23)=Nc2ccccc21 + Cc1sc2c(c1C)C(c1ccc(Cl)cc1)=N[C@@H](CC(=O)OC(C)(C)C)c1nnc(C)n1-2 [NCGC00250412-19] | 13.8
5 | CS(=O)(=O)c1ccc(C(=O)Nc2ccc(Cl)c(-c3ccccn3)c2)c(Cl)c1 + Cc1sc2c(c1C)C(c1ccc(Cl)cc1)=N[C@@H](CC(=O)OC(C)(C)C)c1nnc(C)n1-2 [NCGC00250412-19] | -168
6 | CC(C)C[C@H](NC(=O)[C@H](Cc1ccccc1)NC(=O)c1cnccn1)B(O)O + Cc1sc2c(c1C)C(c1ccc(Cl)cc1)=N[C@@H](CC(=O)OC(C)(C)C)c1nnc(C)n1-2 [NCGC00250412-19] | -138
7 | Clc1ccccc1C(c1ccccc1)(c1ccccc1)n1cccn1 + Cc1sc2c(c1C)C(c1ccc(Cl)cc1)=N[C@@H](CC(=O)OC(C)(C)C)c1nnc(C)n1-2 [NCGC00250412-19] | 11.7
8 | CC1(C)CCC(c2ccc(Cl)cc2)=C(CN2CCN(c3ccc(C(=O)NS(=O)(=O)c4ccc(N[C@H](CCN5CCOCC5)CSc5ccccc5)c(S(=O)(=O)C(F)(F)F)c4)cc3)CC2)C1 + Cc1sc2c(c1C)C(c1ccc(Cl)cc1)=N[C@@H](CC(=O)OC(C)(C)C)c1nnc(C)n1-2 [NCGC00250412-19] | -251
9 | Nc1nc(F)nc2c1ncn2[C@@H]1O[C@H](COP(=O)(O)O)[C@@H](O)[C@@H]1O + Cc1sc2c(c1C)C(c1ccc(Cl)cc1)=N[C@@H](CC(=O)OC(C)(C)C)c1nnc(C)n1-2 [NCGC00250412-19] | -21.9
10 | O=C(NOCC1CC1)c1ccc(F)c(F)c1Nc1ccc(I)cc1Cl + Cc1sc2c(c1C)C(c1ccc(Cl)cc1)=N[C@@H](CC(=O)OC(C)(C)C)c1nnc(C)n1-2 [NCGC00250412-19] | -117
11 | CCOC(=O)N1CCC(=C2c3ccc(Cl)cc3CCc3cccnc32)CC1 + Cc1sc2c(c1C)C(c1ccc(Cl)cc1)=N[C@@H](CC(=O)OC(C)(C)C)c1nnc(C)n1-2 [NCGC00250412-19] | -241
12 | O=C(Nc1ccc(F)c(C(F)(F)F)c1)Nc1nnc(-c2ccncc2)s1 + Cc1sc2c(c1C)C(c1ccc(Cl)cc1)=N[C@@H](CC(=O)OC(C)(C)C)c1nnc(C)n1-2 [NCGC00250412-19] | 396
13 | CC[C@H]1OC(=O)[C@H](C)[C@@H](O[C@H]2C[C@@](C)(OC)[C@@H](O)[C@H](C)O2)[C@H](C)[C@@H](O[C@@H]2O[C@H](C)C[C@H](N(C)C)[C@H]2O)[C@](C)(O)C[C@@H](C)C(=O)[C@H](C)[C@@H](O)[C@]1(C)O + Cc1sc2c(c1C)C(c1ccc(Cl)cc1)=N[C@@H](CC(=O)OC(C)(C)C)c1nnc(C)n1-2 [NCGC00250412-19] | 118
14 | CC1=C(/C=C/C(C)=C/C=C/C(C)=C/C=C/C=C(C)/C=C/C=C(C)/C=C/C2=C(C)CCCC2(C)C)C(C)(C)CCC1 + Cc1sc2c(c1C)C(c1ccc(Cl)cc1)=N[C@@H](CC(=O)OC(C)(C)C)c1nnc(C)n1-2 [NCGC00250412-19] | 219
15 | CO[C@H]1[C@H](O)[C@@H](O)[C@H](n2c3c(Cl)cccc3c3c4c(c5c6cccc(Cl)c6[nH]c5c32)C(=O)NC4=O)O[C@@H]1CO + Cc1sc2c(c1C)C(c1ccc(Cl)cc1)=N[C@@H](CC(=O)OC(C)(C)C)c1nnc(C)n1-2 [NCGC00250412-19] | -234
16 | CC(C)(C)[C@]1(O)CC2OC(=O)CC23C(=O)OC2OC(=O)[C@H](O)C231 (stereo not given in full) + Cc1sc2c(c1C)C(c1ccc(Cl)cc1)=N[C@@H](CC(=O)OC(C)(C)C)c1nnc(C)n1-2 [NCGC00250412-19] | 27.7
17 | CCOC(=O)/C=C/[C@H](C[C@@H]1CCNC1=O)NC(=O)[C@@H](CC(=O)[C@@H](NC(=O)c1cc(C)on1)C(C)C)Cc1ccc(F)cc1 + Cc1sc2c(c1C)C(c1ccc(Cl)cc1)=N[C@@H](CC(=O)OC(C)(C)C)c1nnc(C)n1-2 [NCGC00250412-19] | -127
18 | OCCN1CCN(CCCN2c3ccccc3Sc3ccc(C(F)(F)F)cc32)CC1 + Cc1sc2c(c1C)C(c1ccc(Cl)cc1)=N[C@@H](CC(=O)OC(C)(C)C)c1nnc(C)n1-2 [NCGC00250412-19] | -307

Quoted from the listing:
OCCN1CCN(CCCN2c3ccccc3Sc3ccc(C(F)(F)F)cc32)CC1 + Cc1sc2c(c1C)C(c1ccc(Cl)cc1)=N[C@@H](CC(=O)OC(C)(C)C)c1nnc(C)n1-2 [NCGC00250412-19] – excess over highest single agent: -307
O=C(NOCC1CC1)c1ccc(F)c(F)c1Nc1ccc(I)cc1Cl + Cc1sc2c(c1C)C(c1ccc(Cl)cc1)=N[C@@H](CC(=O)OC(C)(C)C)c1nnc(C)n1-2 [NCGC00250412-19] – excess over highest single agent: -117

(further entries)

Row | Compound | excess over highest single agent
19 | CC(C)Nc1cc(C(F)(F)F)cc2nc(NC(=O)c3cccnc3)nn12 + Cc1sc2c(c1C)C(c1ccc(Cl)cc1)=N[C@@H](CC(=O)OC(C)(C)C)c1nnc(C)n1-2 [NCGC00250412-19] | 144
20 | Cc1cc(SCc2sc(-c3ccc(C(F)(F)F)c(F)c3)nc2C)ccc1OCC(=O)O + Cc1sc2c(c1C)C(c1ccc(Cl)cc1)=N[C@@H](CC(=O)OC(C)(C)C)c1nnc(C)n1-2 [NCGC00250412-19] | 44
21 | O=C(c1cc(Cc2n[nH]c(=O)c3ccccc23)ccc1F)N1CCN(C(=O)C2CC2)CC1 + Cc1sc2c(c1C)C(c1ccc(Cl)cc1)=N[C@@H](CC(=O)OC(C)(C)C)c1nnc(C)n1-2 [NCGC00250412-19] | -192
22 | O=C(O)CCCc1c[nH]c2ccccc12 + Cc1sc2c(c1C)C(c1ccc(Cl)cc1)=N[C@@H](CC(=O)OC(C)(C)C)c1nnc(C)n1-2 [NCGC00250412-19] | 51.4
23 | COCCOC(=O)C1=C(C)NC2=C(C(=O)CC(c3ccccc3OC)C2)C1c1cccc(O)c1 (stereo not given) + Cc1sc2c(c1C)C(c1ccc(Cl)cc1)=N[C@@H](CC(=O)OC(C)(C)C)c1nnc(C)n1-2 [NCGC00250412-19] | -83.4
24 | CC(C)[C@@H](C)/C=C/[C@@H](C)[C@H]1CC[C@H]2C3=CC=C4C[C@@H](O)CC[C@]4(C)[C@H]3CC[C@]12C + Cc1sc2c(c1C)C(c1ccc(Cl)cc1)=N[C@@H](CC(=O)OC(C)(C)C)c1nnc(C)n1-2 [NCGC00250412-19] | -180
25 | Clc1ccc2c(c1)C(N1CCNCC1)=Nc1ccccc1O2 + Cc1sc2c(c1C)C(c1ccc(Cl)cc1)=N[C@@H](CC(=O)OC(C)(C)C)c1nnc(C)n1-2 [NCGC00250412-19] | -234
26 | Cc1ccc(N(CC2=NCCN2)c2cccc(O)c2)cc1 + Cc1sc2c(c1C)C(c1ccc(Cl)cc1)=N[C@@H](CC(=O)OC(C)(C)C)c1nnc(C)n1-2 [NCGC00250412-19] | -239
27 | CCc1ccc(CCOc2ccc(CC3SC(=O)NC3=O)cc2)nc1 (stereo not given) + Cc1sc2c(c1C)C(c1ccc(Cl)cc1)=N[C@@H](CC(=O)OC(C)(C)C)c1nnc(C)n1-2 [NCGC00250412-19] | 53.8
28 | O=C(CCCCCCC(=O)Nc1cccnc1)NO + Cc1sc2c(c1C)C(c1ccc(Cl)cc1)=N[C@@H](CC(=O)OC(C)(C)C)c1nnc(C)n1-2 [NCGC00250412-19] | -276
29 | CC[C@@H]1/C=C/C=C/C[C@H](C)[C@H](O)[C@](C)(O)C(=O)[C@H](C)[C@@H](O)[C@H](C)C(=O)[C@H](C)[C@@H](O)[C@H](C)/C=C/C(=O)O[C@H]2[C@@H](C)[C@@H](CC1)O[C@@]1(CC[C@@H](C)[C@@H](C[C@H](C)O)O1)[C@@H]2C + Cc1sc2c(c1C)C(c1ccc(Cl)cc1)=N[C@@H](CC(=O)OC(C)(C)C)c1nnc(C)n1-2 [NCGC00250412-19] | -216
30 | CO[C@H]1/C=C/O[C@@]2(C)Oc3c(C)c(O)c4c(O)c(c(/C=N/N5CCN(C)CC5)c(O)c4c3C2=O)NC(=O)/C(C)=C\C=C\[C@H](C)[C@H](O)[C@@H](C)[C@@H](O)[C@@H](C)[C@H](OC(C)=O)[C@@H]1C + Cc1sc2c(c1C)C(c1ccc(Cl)cc1)=N[C@@H](CC(=O)OC(C)(C)C)c1nnc(C)n1-2 [NCGC00250412-19] | -65.6
31 | COc1cc(F)c(C(C)C)cc1-c1ccc(C(F)(F)F)cc1CN1C(=O)O[C@H](c2cc(C(F)(F)F)cc(C(F)(F)F)c2)[C@@H]1C + Cc1sc2c(c1C)C(c1ccc(Cl)cc1)=N[C@@H](CC(=O)OC(C)(C)C)c1nnc(C)n1-2 [NCGC00250412-19] | -89.5
32 | CC(Oc1ccc(O)cc1)(P(=O)(O)O)P(=O)(O)O + Cc1sc2c(c1C)C(c1ccc(Cl)cc1)=N[C@@H](CC(=O)OC(C)(C)C)c1nnc(C)n1-2 [NCGC00250412-19] | -65.1
33 | COc1cc(C(C)C)c(Oc2cnc(NC(CO)CO)nc2N)cc1I + Cc1sc2c(c1C)C(c1ccc(Cl)cc1)=N[C@@H](CC(=O)OC(C)(C)C)c1nnc(C)n1-2 [NCGC00250412-19] | -119
34 | O=C1NC(=O)/C(=C/c2ccc3nccc(-c4ccncc4)c3c2)S1 + Cc1sc2c(c1C)C(c1ccc(Cl)cc1)=N[C@@H](CC(=O)OC(C)(C)C)c1nnc(C)n1-2 [NCGC00250412-19] | -177
35 | O=C1NC(=O)C(c2ccccc2[N+](=O)[O-])=C1Nc1ccc(O)c(Cl)c1 + Cc1sc2c(c1C)C(c1ccc(Cl)cc1)=N[C@@H](CC(=O)OC(C)(C)C)c1nnc(C)n1-2 [NCGC00250412-19] | 138
